These are yes or no findings as the source states them, for the method shown. In cells and extracts the contact can be indirect. Some entries that bind do so weakly or less than the wild type.
Target: Argonaute-2 (Ago2) in TEC lysate (rat (endogenous in NRK52E)) (UniProt Q9QZ81)
Assay: co-IP; lysates of TECs with different treatments incubated with anti-Ago2 mouse monoclonal antibody at 4°C overnight, protein A+G agarose for 3 hours at 4°C; beads probed with Ago2 and Nrp-1 antibodies by immunoblotting

Protein sequences, listed by entry. Tags and fused reporters are not part of them.
UniProt Q9QZ81: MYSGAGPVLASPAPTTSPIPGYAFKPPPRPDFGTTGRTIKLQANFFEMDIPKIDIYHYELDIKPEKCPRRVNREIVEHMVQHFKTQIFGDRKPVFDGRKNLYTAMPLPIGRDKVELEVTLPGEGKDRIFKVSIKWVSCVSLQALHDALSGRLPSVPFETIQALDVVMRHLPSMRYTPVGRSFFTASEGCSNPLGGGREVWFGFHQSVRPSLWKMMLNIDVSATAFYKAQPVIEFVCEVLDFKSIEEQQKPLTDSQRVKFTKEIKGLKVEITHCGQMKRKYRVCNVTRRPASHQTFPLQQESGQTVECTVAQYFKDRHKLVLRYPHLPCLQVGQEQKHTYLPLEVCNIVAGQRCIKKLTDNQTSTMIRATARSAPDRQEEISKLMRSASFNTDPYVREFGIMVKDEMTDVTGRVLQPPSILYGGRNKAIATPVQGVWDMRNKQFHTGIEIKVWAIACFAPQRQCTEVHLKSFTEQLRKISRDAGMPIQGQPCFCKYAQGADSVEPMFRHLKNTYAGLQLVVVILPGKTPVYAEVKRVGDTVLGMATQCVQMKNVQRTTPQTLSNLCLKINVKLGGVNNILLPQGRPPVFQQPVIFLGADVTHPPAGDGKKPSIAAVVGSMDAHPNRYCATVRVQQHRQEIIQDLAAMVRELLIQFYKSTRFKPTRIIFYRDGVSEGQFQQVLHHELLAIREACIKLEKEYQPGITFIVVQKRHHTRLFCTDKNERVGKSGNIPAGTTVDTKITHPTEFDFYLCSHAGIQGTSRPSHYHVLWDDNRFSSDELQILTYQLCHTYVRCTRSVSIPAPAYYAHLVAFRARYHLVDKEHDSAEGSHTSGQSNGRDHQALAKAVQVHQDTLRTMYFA

Question: “Neuropilin-1 (Nrp-1), TEC-derived (from UniProt Q9QWJ9 22-922) (receptor)” was tested. Which binding did it give?
Answer: Its binding is “binds”.

Source: paper PMC7453242
